Test results published in patent US20050054007A1.

Target: bovine histone H1 (Boehringer Mannheim) (bovine)
Experiment: ELISA on 100 ng coated bovine histone; confirmed by a competition ELISA with histones in solution

- binding: binds
B1: NHS76 IgG (antibody, V domains shown)
VH: QVQLQESGPGLVKPSETLSLTCAVSGYSISSGYYWGWIRQPPGKGLEWIGSIYHSGSTYYNPSLKSRVTISVDTSKNQFSLKLSSVTAADTAVYYCARGKWSKFDYWGQGTLVTVSS
VL: SSELTQDPAVSVALGQTVRITCQGDSLRSYYASWYQQKPGQAPVLVIYGKNNRPSGIPDRFSGSSSGNTASLTITGAQAEDEADYYCNSRDSSGNHVVFGGGTKLTVL

No constants are given. Whether binding was seen depends on the method and setting. Binding can be weak; no strength is given.
